{"sequences": {"note": "Chains of the proteins cited; added tags and fusions are not shown.", "UniProt P37288, whole entry": "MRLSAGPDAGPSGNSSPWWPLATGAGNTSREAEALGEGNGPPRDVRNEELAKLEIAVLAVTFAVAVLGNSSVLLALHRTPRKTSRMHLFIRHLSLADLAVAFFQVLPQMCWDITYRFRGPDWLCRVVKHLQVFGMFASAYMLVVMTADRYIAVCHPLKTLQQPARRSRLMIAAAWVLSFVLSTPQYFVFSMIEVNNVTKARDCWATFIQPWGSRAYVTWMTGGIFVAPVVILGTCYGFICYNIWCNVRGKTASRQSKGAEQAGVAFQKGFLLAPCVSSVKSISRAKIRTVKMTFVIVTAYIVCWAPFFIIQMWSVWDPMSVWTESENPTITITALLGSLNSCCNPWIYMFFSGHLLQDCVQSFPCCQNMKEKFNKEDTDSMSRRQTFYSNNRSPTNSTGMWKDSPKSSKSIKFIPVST"}, "source": "patent US9840495B2", "about": "“Oxindole derivatives carrying a piperidyl-substituted azetidinyl substituent and use thereof for treating vasopressine-related diseases” (AbbVie Deutschland GmbH & Co. KG, priority 2013, dated 2017)", "note": "At least one compound was matched to its structure with a doubt left.", "data": [{"molecular_target": "human vasopressin V1a receptor (Homo sapiens, UniProt P37288)", "assay": "Vasopressin V1a receptor binding assay (125I-AVP displacement, CHO-K1 membranes)", "details": "selectivity quotient, human V1a vs human V1b receptor binding", "values": [{"smiles": "CCOc1ncccc1[C@]1(NC(=O)N2CC(N3CCC(N4CCOCC4)CC3)C2)C(=O)N(S(=O)(=O)c2ccc(OC)cc2OC)c2ccc(Cl)cc21", "note": "[Example 13, (S)—N-(5-Chloro-1-((2,4-dimethoxyphenyl)sulfonyl)-3-(2-ethoxypyridin-3-yl)-2-oxoindolin-3-yl)-3-(4-morpholinopiperidin-1-yl)azetidine-1-carboxamide]", "Ki(h-V1a)/Ki(h-V1b)": "+++ (>75)"}, {"smiles": "CCOc1ncccc1[C@]1(NC(=O)N2CC(N3CCC(N4CCOCC4)CC3)C2)C(=O)N(S(=O)(=O)c2ccc(F)cc2F)c2ccc(C#N)cc21", "note": "[Example 26, (S)—N-(5-Cyano-1-((2,4-difluorophenyl)sulfonyl)-3-(2-ethoxypyridin-3-yl)-2-oxoindolin-3-yl)-3-(4-morpholinopiperidin-1-yl)azetidine-1-carboxamide]", "Ki(h-V1a)/Ki(h-V1b)": "+++ (>75)"}, {"smiles": "CCOc1ncccc1[C@]1(NC(=O)N2CC(N3CCC(N(C)C4COC4)CC3)C2)C(=O)N(S(=O)(=O)c2ccc(OC)cc2OC)c2ccc(Cl)cc21", "note": "[Example 14, (S)—N-(5-Chloro-1-((2,4-dimethoxyphenyl)sulfonyl)-3-(2-ethoxypyridin-3-yl)-2-oxoindolin-3-yl)-3-(4-(methyl(oxetan-3-yl)amino)piperidin-1-yl)azetidine-1-carboxamide]", "Ki(h-V1a)/Ki(h-V1b)": "++ (25-75)"}]}]}
